PubChem BioAssay AID1347076 (National Center for Advancing Translational Sciences (NCATS), 2019)
Among all 400,000 compounds or so, about 13,000 (3.2%) were called active. The inconclusive results got no clear call from the source; some entries with a clear call stand among them for comparison. The call rests on the fitted dose curve; in most records, active means well fitted cell-killing curve with a large enough effect; inconclusive means small, poorly fitted or top-dose-only effect, or effect the other way; inactive means flat fitted curve, though single readings scatter. Where the call is inconclusive, the potency comes from a doubtful curve fit.

Test: qHTS assay for MDR1-selective chemotherapeutics: Primary screen using the drug-selected MDR subline cells KB-V1; further: nearly all actives have a fitted effect of over 60% in size
Conditions: KB-V1 MDR cells viability, CellTiter-Glo, 72 h; series mostly up to 46.1 µM
Outline: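 KB-V1, DMEM (no phenol red) + 10% FBS; cpd pin-transferred, titration series; 72 h, 37 degrees C; CellTiter-Glo, luminescence. Data normalized, curve-fit.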
Potency means the concentration at half of the fitted maximal effect.

With `COC(=O)Cn1c(C(=O)N2CCCC2)cc2c1C[C@H]1CN(C(=O)c3ccccc3)[C@@](Cc3ccc(OC)cc3)(C(=O)OC)[C@@H]21` as the compound, how does the Potency read?
The Potency was inconclusive: 9.2 µM [cytotoxic, partial curve, poor fit].

For `Cc1c(-c2ccn[nH]2)cc(NC(=O)c2ccc(Cl)cc2)c(=O)n1N`, which Potency is on record?
The Potency was inconclusive: 16.4 µM [cytotoxic, partial curve, poor fit].

With `NC(=O)C1CCN(C(=O)CSc2nc3ccccc3[nH]2)CC1` as the compound, how does the Potency read?
Its Potency is “inactive”.

Which Potency does the source give for `Cc1cc(CNC(=O)COc2ccc([N+](=O)[O-])cc2)c2ccccc2n1` here?
The Potency was inconclusive: 11.6 µM [cytotoxic, partial curve].

Which Potency does the source give for `Cn1ncc(Cl)c1C(=O)NCc1ccc(Cl)cc1` here?
The Potency was active: 3.66 µM.

For `O=C(Nc1ccccc1)N(CCc1nc2ccccc2[nH]1)C1CCCC1`, which Potency is on record?
Its Potency is active: 16.4 µM.

For `CN(C(=O)c1ccco1)c1nc(CC(=O)Nc2ccccc2)cs1`, which Potency is on record?
The Potency was “inactive”.

With `Cc1ccc(C(=O)Nc2ccc3nccnc3c2)cc1` as the compound, how does the Potency read?
The Potency was inconclusive: 25.9 µM [cytotoxic, single point].

For `CC1(C)CC2CC(C)(CN2c2ncnc3ccc(Br)cc23)C1` (stereo not drawn), which Potency is on record?
Its Potency is active: 2.59 µM.

For `CC1CC(C)CN(Cc2nc(N)nc(Nc3ccc4ccccc4c3)n2)C1` (stereo not drawn), which Potency is on record?
The Potency was inconclusive: 5.17 µM [cytotoxic, full curve].

Which Potency does the source give for `COc1ccc(NC(=O)CN(C)C(=O)c2ccc(N3CCCCC3)c([N+](=O)[O-])c2)cc1` here?
The Potency was inconclusive: 13 µM [cytotoxic, partial curve, poor fit].

Which Potency does the source give for `Cc1ccc(NC(=S)N2CCCC(c3ccccc3)=N2)cc1` here?
Its Potency is inconclusive: 29.1 µM [cytotoxic, single point].

Which Potency does the source give for `Cc1cc(CNC(=O)c2cccnc2Cl)c2ccccc2n1` here?
Its Potency is inconclusive: 16.4 µM [rising, single point].

With `CCOCCCn1c(SCC(=O)Nc2ccc(F)cc2)nc2c(sc3ccccc32)c1=O` as the compound, how does the Potency read?
The Potency was inconclusive: 32.6 µM [cytotoxic, single point].

Which Potency does the source give for `Cc1cccc2sc(NNC(=O)C3COc4ccccc4O3)nc12` (stereo not drawn) here?
Its Potency is “inactive”.

With `CCCCn1c(N)c(N(CCOC)C(=O)CC(NC(=O)c2ccccc2)c2ccccc2)c(=O)[nH]c1=O` (stereo not drawn) as the compound, how does the Potency read?
The Potency was inconclusive: 20.6 µM [rising, partial curve, poor fit].

For `Nc1oc2ccccc2c(=O)c1-c1ccc2c(c1)OCO2`, which Potency is on record?
Its Potency is inconclusive: 9.2 µM [rising, partial curve, poor fit].

For `O=C1CCC([N+](=O)[O-])C(c2ccc(-c3ccccc3)cc2)N1` (stereo not drawn), which Potency is on record?
Its Potency is inconclusive: 9.2 µM [rising, partial curve].

With `O=C1c2cc(F)ccc2OC2(CCNCC2)C12CC(c1ccccc1)=NO2` (stereo not drawn) as the compound, how does the Potency read?
The Potency was “inactive”.

Which Potency does the source give for `COCCNC(=O)CN1C(=O)COc2ccc(S(=O)(=O)N3CCOCC3)cc21` here?
Its Potency is “inactive”.

For `Cc1ccc(S(=O)(=O)N2CCCCC2C(=O)Nc2ccc(N(C)C)cc2)cc1` (stereo not drawn), which Potency is on record?
Its Potency is “inactive”.

For `COc1cccc(CNC(=O)CCC2CCCN(C(=O)c3ccoc3C)C2)c1` (stereo not drawn), which Potency is on record?
The Potency was inconclusive: 29.1 µM [rising, single point].

Which Potency does the source give for `Cc1ccc(Cn2nnnc2CN2CCC(NC(=O)c3ccc(Br)cc3)CC2)cc1` here?
Its Potency is active: 18.4 µM.

With `O=C(CN1CCCCC1)Nc1ccccc1` as the compound, how does the Potency read?
Its Potency is inconclusive: 29.1 µM [rising, single point].

Which Potency does the source give for `C/C(=N\OCC(=O)Nn1c(C)nc2ccccc2c1=O)c1ccccc1` here?
The Potency was active: 16.4 µM.

Which Potency does the source give for `CC1(C)Cc2nc3sc4c(=O)n(Cc5ccccc5)cnc4c3cc2CS1` here?
Its Potency is active: 8.2 µM.

For `C=Cc1ccc(CSc2nc(-c3ccccc3C)nc3c2Cc2c(CO)cnc(C)c2O3)cc1`, which Potency is on record?
Its Potency is “inactive”.

For `O=C(Nc1nc(-c2ccc([N+](=O)[O-])cc2)cs1)C1=COCCO1`, which Potency is on record?
Its Potency is inconclusive: 29.1 µM [cytotoxic, single point].

Which Potency does the source give for `COc1cccc(CNC(=O)C2CCN(S(=O)(=O)c3ccccc3)CC2)c1` here?
The Potency was active: 20.6 µM.

With `O=c1c(Cl)c(NCCO)cnn1-c1cccc(Cl)c1` as the compound, how does the Potency read?
The Potency was inconclusive: 29.1 µM [rising, single point].

Which Potency does the source give for `CCc1ccccc1N(C)C(=O)Nc1cn(CC(C)C)c(=O)c2ccccc12` here?
The Potency was “inactive”.

For `Clc1ccc(-n2ncc3c(NCc4ccco4)ncnc32)cc1`, which Potency is on record?
Its Potency is inconclusive: 2.51 µM [cytotoxic, partial curve, poor fit].

Which Potency does the source give for `CCOC(=O)c1c(C)[nH]c(C)c1C(=O)CSc1nc2ccccc2c(=O)n1-c1ccc(CC)cc1` here?
Its Potency is active: 7.31 µM.

For `CCn1c(C(=O)O)c(CC(=O)N(C)c2ccc(OC)cc2OC)c2ccccc21`, which Potency is on record?
The Potency was inconclusive: 29.1 µM [rising, single point].

Which Potency does the source give for `Cc1cc(NC(=O)CSc2ncc(C(F)(F)F)cc2Cl)no1` here?
Its Potency is inconclusive: 0.731 µM [rising, full curve, poor fit].

Which Potency does the source give for `COc1ccc(Cc2nnc(N/N=C/c3ccc(O)cc3)[nH]c2=O)cc1OC` here?
Its Potency is inconclusive: 0.58 µM [cytotoxic, full curve, poor fit].

Which Potency does the source give for `CCSc1nnc(NC(=O)CSc2nnc(Cc3cccn3C)n2-c2ccc(F)cc2)s1` here?
The Potency was active: 16.4 µM.

For `COc1ccc(N2CCN(S(=O)(=O)c3ccc(OC)c(C(=O)N4CCOCC4)c3)CC2)cc1`, which Potency is on record?
Its Potency is inconclusive: 20.6 µM [cytotoxic, single point].

With `COc1ccc(N2CC(C(=O)Nc3cc(C(F)(F)F)ccc3N3CCCC3)CC2=O)c(OC)c1` (stereo not drawn) as the compound, how does the Potency read?
Its Potency is inconclusive: 29.1 µM [cytotoxic, single point].

Which Potency does the source give for `COc1ccc(C(=O)OCC(=O)Nc2ccc(Cl)c(C(F)(F)F)c2)c(OC)c1OC` here?
Its Potency is inconclusive: 20.6 µM [cytotoxic, single point].

For `COc1cccc2cc(C(C)N(CCCN3CCOCC3)C(=O)Nc3ccccc3)oc12` (stereo not drawn), which Potency is on record?
Its Potency is “inactive”.

For `C[C@@H]1[C@H](c2ccccc2)OCCS(=O)(=O)N1Cc1ccc(F)cc1`, which Potency is on record?
The Potency was inconclusive: 20.6 µM [cytotoxic, single point].

For `N#Cc1ccc(NC(=O)COCc2cc(-c3ccc4c(c3)OCO4)on2)cc1`, which Potency is on record?
Its Potency is “inactive”.

Which Potency does the source give for `CCOC(=O)/C=C(\C)Sc1cc(=O)oc2ccccc12` here?
Its Potency is inconclusive: 18.4 µM [cytotoxic, single point].

Which Potency does the source give for `O=C(CCS(=O)(=O)c1cccc2nonc12)N1CCN(c2ccc(F)cc2)CC1` here?
Its Potency is active: 23.1 µM.

With `CCNC(=S)N1N=C2c3ccccc3CCC2C1c1ccc(F)cc1` (stereo not drawn) as the compound, how does the Potency read?
Its Potency is active: 20.6 µM.

For `CC1CCN(C(=O)c2ccc(S(=O)(=O)Cc3cc(F)ccc3F)c([N+](=O)[O-])c2)CC1`, which Potency is on record?
Its Potency is active: 14.6 µM.

For `O=C(COCc1nc2ccccc2c(=O)[nH]1)NCC1CCCCC1`, which Potency is on record?
Its Potency is “inactive”.

Which Potency does the source give for `C#CCNC(=O)C1=C[C@@H](C)C[C@@H](OCc2ccc(CO)cc2)O1` here?
The Potency was “inactive”.

Which Potency does the source give for `COC(=O)CSc1nnc(SCc2ccc(Cl)cc2)s1` here?
The Potency was inconclusive: 23.1 µM [rising, partial curve, poor fit].

For `O=C(C1CCCN(S(=O)(=O)c2ccc(Br)s2)C1)N1CCCCCC1` (stereo not drawn), which Potency is on record?
The Potency was inconclusive: 5.17 µM [cytotoxic, partial curve].

With `O=C(CCS(=O)(=O)Cc1ccccc1F)NCCc1ccc(Cl)cc1` as the compound, how does the Potency read?
The Potency was “inactive”.

With `COc1ccccc1-c1ccc([C@@H]2C[C@H]3[C@H](CON3C)CN2C(=O)c2ccc(-c3ccccc3)cc2)cc1` as the compound, how does the Potency read?
The Potency was “inactive”.

For `Cc1cc(N2CCCCC2)nc(SCc2ccc(C#N)cc2)n1`, which Potency is on record?
Its Potency is inconclusive: 20.6 µM [cytotoxic, single point].

Which Potency does the source give for `O=C(Cc1c(F)cccc1Cl)Nc1nccs1` here?
Its Potency is “inactive”.

For `Cc1ccc2nc(SC(C)C(=O)NCc3ccc4c(c3)OCO4)[nH]c2c1` (stereo not drawn), which Potency is on record?
Its Potency is inconclusive: 29.1 µM [cytotoxic, single point].

With `Cc1nn(C)c(Oc2ccccc2)c1CCNS(=O)(=O)c1ccc(F)cc1` as the compound, how does the Potency read?
Its Potency is inconclusive: 20.6 µM [cytotoxic, single point].

With `COc1ccc(C(=O)N/N=C/c2ccc(OC)c(OS(=O)(=O)c3ccccc3)c2)cc1` as the compound, how does the Potency read?
The Potency was inconclusive: 9.2 µM [cytotoxic, partial curve].

For `COc1ccccc1-n1nnnc1SCC(=O)NCC1(N2CCOCC2)CCCCC1`, which Potency is on record?
The Potency was “inactive”.

Which Potency does the source give for `COc1ccc(C(=O)Nc2ccc3c(c2)N(C2CCCC2)C(=O)c2ccccc2S3)cc1OC` here?
The Potency was “inactive”.

Which Potency does the source give for `O=C(NC(NC(=S)N1CCOCC1)C(Cl)(Cl)Cl)c1ccc(Cl)cc1` (stereo not drawn) here?
Its Potency is active: 13 µM.

For `Cc1ccc(C)c(-c2nn(CC(=O)Nc3cc(F)ccc3F)c(=O)c3c2CCCC3)c1`, which Potency is on record?
The Potency was “inactive”.

With `CC(Nc1cccc([N+](=O)[O-])c1)C(=O)Nc1ccc(S(=O)(=O)N2CCCC2)cc1` (stereo not drawn) as the compound, how does the Potency read?
Its Potency is inconclusive: 16.4 µM [cytotoxic, partial curve].

Which Potency does the source give for `O=C(CSc1nnc2scc(-c3ccc(Cl)cc3)n12)Nc1ccccc1F` here?
Its Potency is “inactive”.

For `Cc1sc(NC(=O)c2ccc(=O)n(C)n2)nc1-c1ccccc1`, which Potency is on record?
Its Potency is “inactive”.

For `Cc1ccc(-c2cc(C(F)(F)F)n3nc(C(=O)Nc4sc5c(c4C#N)CCC(C)C5)cc3n2)cc1` (stereo not drawn), which Potency is on record?
Its Potency is “inactive”.

For `CCC(C)NC(C(=O)Nc1ccc(Cl)c([N+](=O)[O-])c1)c1ccccc1` (stereo not drawn), which Potency is on record?
Its Potency is inconclusive: 8.2 µM [cytotoxic, partial curve].

With `O=C(CCN1CCCO1)N1CCCC(Nc2cccc(F)c2)C1` (stereo not drawn) as the compound, how does the Potency read?
Its Potency is “inactive”.

With `O=C(Nc1ccccc1-c1ccccc1)c1cnccn1` as the compound, how does the Potency read?
Its Potency is inconclusive: 29.1 µM [cytotoxic, single point].

For `CCCCCc1c(-c2ccccc2F)ncn1CCc1ccccc1OC`, which Potency is on record?
Its Potency is active: 18.4 µM.

For `COc1ccc(CN2C(=O)NC3(CCOc4ccccc43)C2=O)cc1F` (stereo not drawn), which Potency is on record?
Its Potency is inconclusive: 16.4 µM [cytotoxic, partial curve].

For `CN(Cc1ccccc1)S(=O)(=O)c1ccc(NC(=O)C2CCCCC2C(=O)O)cc1` (stereo not drawn), which Potency is on record?
Its Potency is active: 20.6 µM.

Which Potency does the source give for `COCCn1c(SCC(=O)N(C(C)C)C(C)C)nnc1-c1cc2ccccc2cc1O` here?
Its Potency is inconclusive: 18.4 µM [cytotoxic, partial curve, poor fit].
